Results on 65 compounds are retold here after PubChem BioAssay AID2685 (National Center for Advancing Translational Sciences (NCATS), 2010).

The assay in a line: qHTS Assay for Lipid Storage Modulators in Drosophila S3 Cells.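 For cell number change: cells counted by Cell Tracker Red CMTPX staining in the red channel.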 As to conditions: BODIPY lipid droplet fluorescence, 18-24 h; for cell number change: measured here: cell count max response, cells fed with added oleic acid. Put shortly: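 Drosophila S3 cells loaded with oleic acid (400 uM, as added) and compounds at several concentrations; lipid droplets imaged by 488-nm laser-scanning cytometry, 500–530 nm intensity and object ratio to cell channel. Percent activity normalized to 20 uM Triacsin C.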

Where [1] appears, read: measured here: lipid fluorescence (Fed channel) AC50, cells fed with added oleic acid.
[2] abbreviates: measured here: cell number channel AC50, cells fed with added oleic acid.

This is one part of the list. Further columns of the screen follow, without active or inactive calls. Most of these compounds were active or inconclusive in the main read-out, so they are no random draw. The note in brackets gives the kind of curve behind each potency; many fits are weak.

Consider `C/C(N)=C(/C#N)C(=O)COC(=O)c1ccc(OCC2CCCO2)cc1` (stereo unspecified), for which the cell number change turned out to be 28.2%. For the compound `N#CC1=C(N)C2=CCCC[C@H]2[C@H](c2ccc(Br)cc2)C1(C#N)C#N`, the cell number change is -6.79%. For the same compound, under setting [1], the AC50 was 29.1 µM [falling, single point]. In the case of `Cc1cc(C)n2nc(SCC(=O)N3CCOCC3)nc2n1`, the cell number change came out at 19.1%. Also, the AC50 under setting [1] was 5.8 µM [falling, single point].

Consider `O=C(COC(=O)CCCOc1ccc(Cl)cc1Cl)NCc1ccccc1`, for which the AC50 under setting [2] is 4.11 µM [rising, single point]. For `CCCCC(=O)N/N=C(\C)CC(=O)Nc1cc(Cl)ccc1OC`, the cell number change was -38.3%. For the same compound, under setting [2], the AC50 was 29.1 µM [falling, single point]. As for `COc1ccc(-c2cc(C#N)nc(N3CCNCC3)n2)cc1`, the AC50 under setting [2] is 0.731 µM [rising, single point]. Consider `Cc1cc(C(=O)Nc2ncn[nH]2)ccc1[N+](=O)[O-]`, for which the cell number change came out at 1.85%. For the compound `Cc1cnc(NC(=O)[C@H](C)N2C(=O)C3CCCCC3C2=O)s1` (stereo partly specified), the cell number change came to 15%. Besides, the concentration at half-maximal activity (AC50) under setting [2] was 0.517 µM [falling, partial curve]. The AC50 under setting [1] was 6.51 µM [falling, single point].

`O=C(COc1ccc(Br)cc1)NC(=S)Nc1ccccc1N1CCOCC1`: the cell number change was -24.9%. Besides, the AC50 under setting [1] is 29.1 µM [rising, single point]. Regarding `C=Cn1c(C(=O)O)ccc1-c1ccc(OC)cc1`, the cell number change is -14.9%. Besides, the AC50 under setting [1] was 5.8 µM [falling, single point].

Turning to `Clc1cccc(CSc2nnc([C@@H]3CCCN3)o2)c1`, the cell number change was determined as 58.8%. Besides, under setting [2], the AC50 was 3.26 µM [rising, partial curve, poor fit]. Take `COc1cccc(/C=C/C(=O)c2ccc(C)c([N+](=O)[O-])c2)c1`: the cell number change was -16.5%. In addition, the concentration at half-maximal activity (AC50) under setting [1] is 0.58 µM [rising, single point]. For `O=C(Nc1ccccn1)c1cc2ccccc2cc1O`, the cell number change is 47.1%. In addition, the AC50 under setting [1] was 23.1 µM [falling, single point]. Consider `OC(CN1CC=C(/C=C/c2ccc(Br)cc2)CC1)c1ccccc1` (stereo unspecified), for which the cell number change is -6.08%. Further, under setting [1], the AC50 is 29.1 µM [falling, single point]. `COC(=O)c1ccc(NC(=O)CNC(=O)C2CCCCC2)c(C)c1`: the cell number change was 186%. For the same compound, the AC50 under setting [2] is 18.4 µM [rising, partial curve]. In addition, the AC50 under setting [1] was 0.58 µM [rising, single point]. Consider `CCCN(CCC)C(=S)NC(=O)c1ccc(-c2ccccc2)cc1`, for which the cell number change is -74.2%. Under setting [2], the AC50 was 29.1 µM [falling, single point]. Under setting [1], the AC50 is 29.1 µM [falling, single point]. As for `CCC(C)NC(=O)CCc1nc2ccccc2n1-c1ccccc1` (stereo unspecified), the cell number change is 4.15%. In addition, the AC50 under setting [2] was 6.51 µM [falling, single point]. Under setting [1], the AC50 was 6.51 µM [falling, single point]. As for `O=C(CSc1nnc(-c2cccc(F)c2)o1)NC1CCCC1`, the cell number change worked out at 17.3%. Besides, the AC50 under setting [1] is 29.1 µM [rising, single point]. Take `COc1ccccc1CN1C(=O)CN(C2CCCCCC2)C(=O)C1c1ccc(F)cc1` (stereo unspecified): the cell number change was -13.2%. On to `COc1cc(Cc2nccc3cc(OC)c(OC)cc23)c(S(=O)(=O)O)cc1OC`, for which the cell number change turned out to be 37.5%. Moreover, under setting [2], the half-maximal activity concentration (AC50) was 2.31 µM [rising, full curve].

For the compound `Cc1ccc(OCCOCCNC(C)C)c(Br)c1`, the cell number change turned out to be 26.2%. As to `Cc1ccc(C(=O)NCC(=O)N/N=C/c2cccs2)cc1[N+](=O)[O-]`, the cell number change was -3.85%. For the same compound, the AC50 under setting [2] was 0.731 µM [falling, full curve, poor fit]. Besides, the AC50 under setting [1] is 0.00461 µM [falling, full curve, poor fit]. As for `COc1cc(C(=O)N/N=C/c2ccsc2C)cc(OC)c1OC`, the cell number change was -10.7%. Further, the AC50 under setting [1] is 6.51 µM [falling, full curve]. `CCOc1ccc(S(=O)(=O)N2CCN(CC(O)COc3cccc([N+](=O)[O-])c3)CC2)cc1` (stereo unspecified): the cell number change was -25%. With `Cn1nc(-c2ccccc2)cc1NS(=O)(=O)c1ccccc1`, the cell number change was -5.32%. Also, the AC50 under setting [1] was 0.184 µM [falling, full curve, poor fit]. Turning to `O=C(NNc1cc(C(F)(F)F)nc2ccccc12)Nc1cccc(Cl)c1`, the cell number change stood at 2.08%. For the compound `Cc1nc(-c2ccc(NC(=O)C3CCCCC3)cc2)cs1`, the cell number change stood at 15.2%. With `NS(=O)(=O)c1ccc2ccccc2c1`, the cell number change worked out at 13.1%. As to `O=C(CCc1ccccc1)Nc1nc2nc(-c3ccccc3)cc(=O)n2[nH]1`, the cell number change is -12.8%. Moreover, the AC50 under setting [1] is 2.06 µM [rising, partial curve, poor fit]. Turning to `CCOC(=O)N1CCN(C(=O)c2ccc([N+](=O)[O-])cc2Cl)CC1`, the AC50 under setting [1] is 5.8 µM [falling, full curve]. On the same count and under the same terms, the figure for `CCc1ccc2[nH]c(=O)c(CN(CCN3CCCC3)C(=O)NC3CCCCC3)cc2c1` is 0.651 µM [rising, single point].

With `O=C(OCC#CCSc1nc2ccccc2o1)c1ccco1`, the AC50 runs as follows: under setting [2], 0.92 µM [rising, full curve]; under setting [1], 0.651 µM [rising, single point].

Take `Cc1ccc(CN2CCNC(=O)C2CC(=O)NCC(F)(F)F)o1` (stereo unspecified): the cell number change was found to be 3.82%. Besides, the AC50 under setting [1] was 3.66 µM [falling, single point]. Turning to `CC1CCCC(N2CCN(C(=O)c3ccccc3F)CC2)C1` (stereo unspecified), the cell number change was -25.4%. In the case of `Cn1c(O)c(N=NC(=O)CNC(=O)/C=C/c2ccccc2)c2ccccc21`, the cell number change was -12.4%. In the case of `O=C(COc1ccccc1C(=O)Nc1ccccc1)c1ccc(Br)cc1`, the cell number change amounted to 115%. The AC50 under setting [2] was 20.6 µM [rising, partial curve]. Regarding `CC(=O)N1N=C(c2ccccc2)CC1c1ccc(F)cc1` (stereo unspecified), the cell number change is -10.6%. The AC50 under setting [1] was 0.731 µM [rising, full curve]. Consider `CCN(C(=O)C(C)Cl)c1ccccc1` (stereo unspecified), for which the cell number change is -32.2%. Moreover, the AC50 under setting [2] was 6.51 µM [rising, single point].

Turning to `COc1ccc(S(=O)(=O)Cc2ccc(C(=O)N3CCN(Cc4ccccc4)CC3)o2)cc1`, the AC50 under setting [2] was 0.13 µM [falling, full curve, poor fit]. In the case of `CC(=O)OC12CC3CC(C1)C(=NO)C(C3)C2`, the cell number change is -48.7%. Also, the AC50 under setting [2] was 1.46 µM [falling, full curve]. Besides, under setting [1], the AC50 is 1.16 µM [falling, full curve]. As to `Cc1[nH]nc2c1C(c1ccc(O)cc1)C1=C(CC(C)(C)CC1=O)N2` (stereo unspecified), the cell number change was -22%. In addition, the half-maximal activity concentration (AC50) under setting [1] is 3.66 µM [falling, partial curve, poor fit].

Consider `O=C1CCC(C(=O)Nc2cccc3ccccc23)N1` (stereo unspecified), for which the cell number change turned out to be 17.5%. In addition, the AC50 under setting [1] was 4.11 µM [falling, single point]. Consider `Cc1cccc2cc(C#N)c(NCCCn3ccnc3)nc12`, for which the AC50 under setting [2] was 2.31 µM [rising, single point] and the concentration at half-maximal activity (AC50) under setting [1] was 5.8 µM [rising, full curve]. As to `CN(CCCNC(=O)CCCOc1cc(=O)n(C)c2ccccc12)Cc1ccccc1`, the cell number change worked out at 23.7%. Besides, the AC50 under setting [2] is 0.116 µM [rising, full curve, poor fit].

On to `Cc1cccc(C(=O)N2CCC(=O)N(C(COCc3cccc(Cl)c3)Cc3ccccc3)CC2)c1` (stereo unspecified), for which the cell number change was -0.323%. Take `Cc1cc(C(=O)N/N=C\c2cc(C(C)(C)C)c(O)c(C(C)(C)C)c2)n[nH]1`: the cell number change is -2.92%. The AC50 under setting [1] is 7.31 µM [falling, single point]. In the case of `CC1CCCN(C(=O)CSc2cnc3ccccc3n2)C1` (stereo unspecified), the cell number change came to 77.9%. Moreover, the AC50 under setting [2] was 7.31 µM [rising, partial curve]. Also, the AC50 under setting [1] is 5.8 µM [rising, single point]. `C=CCc1c(C)nc(-c2ccccc2)nc1N/N=C/c1ccccc1`: the cell number change was -21.2%.

In the case of `Cc1cc(C)n2nc(SCC(N)=O)nc2n1`, the cell number change is -8.02%.

Regarding `CCCCCCCNC(=O)C1(CC2CC(c3ccc(Cl)cc3)=NO2)CCN(C(=O)c2ccccc2)CC1` (stereo unspecified), the cell number change stood at 37.2%. The AC50 under setting [2] was 7.31 µM [rising, partial curve, poor fit]. With `Cn1ccsc1=NC(=O)c1ccc(CS(C)(=O)=O)cc1`, the cell number change stood at 8.7%. `COc1cc(NC(=O)CN2C(=O)NC(C)(c3ccc(OC(F)F)cc3)C2=O)cc(OC)c1OC` (stereo unspecified): the cell number change came to 14%. Also, under setting [1], the AC50 is 1.84 µM [rising, partial curve].

Regarding `CN1CCN(C(=O)CN(Cc2ccc(Cl)cc2)S(C)(=O)=O)CC1`, the cell number change is -81.9%. In addition, under setting [2], the AC50 is 20.6 µM [falling, single point]. Moreover, the AC50 under setting [1] is 23.1 µM [falling, single point].

Consider `COc1cc(/C=C2/C(=O)N(c3cccc(Br)c3)N=C2C)cc(OC)c1O`, for which the cell number change was -13.7%. Moreover, the AC50 under setting [1] is 29.1 µM [falling, single point].

On to `COc1ccc(-c2nc(CS(=O)CC(=O)NCc3ccc4c(c3)OCO4)c(C)o2)cc1` (stereo unspecified), for which the cell number change worked out at 10.4%. For the same compound, the AC50 under setting [1] was 5.8 µM [rising, full curve]. Turning to `Cc1c(C(=O)C(=O)NCC2CCCO2)c2ccccc2n1C` (stereo unspecified), the cell number change is -34%. Under setting [2], the AC50 is 0.00517 µM [falling, full curve, poor fit]. On to `CCOC(=O)c1sc2nc(CC(=O)OC)nc(N3CCN(c4ccc(OC)cc4)CC3)c2c1C`, for which the AC50 under setting [1] is 0.291 µM [rising, partial curve, poor fit].

As to `CCN1C(=O)CSc2ccc(C(=O)NCc3ccco3)cc21`, the cell number change stood at 8.73%. For `CCCC(NC(=O)COc1cc2c(c3oc(=O)c(C)c(C)c13)CCC(C)(C)O2)C(=O)O` (stereo unspecified), the cell number change came to 16.3%. Also, the AC50 under setting [1] is 29.1 µM [rising, single point]. With `Cc1ccc(NC(=O)NC(=O)CSc2nnnn2C)c(C)c1`, the cell number change was -5.81%. The AC50 under setting [1] was 3.66 µM [rising, single point]. Turning to `NC1=NC[C@H](Cc2ccc(O)cc2)N1CCC12CC3CC(CC(C3)C1)C2`, the cell number change was determined as 0.708%. Besides, under setting [1], the AC50 was 2.31 µM [rising, partial curve, poor fit]. Regarding `COc1ccc(NC(=O)CN2C(=O)NC(CC(C)C)C2=O)cc1S(=O)(=O)N1CCOCC1` (stereo unspecified), the cell number change worked out at 16%. Under setting [1], the AC50 is 0.0366 µM [rising, single point]. In the case of `N#Cc1ccc(C(=O)Nc2cccc3ncccc23)c(F)c1`, the cell number change turned out to be 11.4%. Besides, the AC50 under setting [1] is 5.8 µM [rising, partial curve]. As for `Cc1cc(C)c2nc(N3CCCC(C(=O)N4CCN(c5ncccn5)CC4)C3)sc2c1` (stereo unspecified), the cell number change was 13%. Moreover, the AC50 under setting [1] is 5.17 µM [rising, partial curve]. Consider `O=C(NCc1cccnc1)C1CC(c2cccc(Br)c2)=NO1` (stereo unspecified), for which the cell number change was 16.1%.
